# Reference: PubChem BioAssay AID504327 (National Center for Advancing Translational Sciences (NCATS), 2011)
# By UniProt entry, the sequences of proteins in these tests, tags left out.
# UniProt Q92830, whole entry, looked up: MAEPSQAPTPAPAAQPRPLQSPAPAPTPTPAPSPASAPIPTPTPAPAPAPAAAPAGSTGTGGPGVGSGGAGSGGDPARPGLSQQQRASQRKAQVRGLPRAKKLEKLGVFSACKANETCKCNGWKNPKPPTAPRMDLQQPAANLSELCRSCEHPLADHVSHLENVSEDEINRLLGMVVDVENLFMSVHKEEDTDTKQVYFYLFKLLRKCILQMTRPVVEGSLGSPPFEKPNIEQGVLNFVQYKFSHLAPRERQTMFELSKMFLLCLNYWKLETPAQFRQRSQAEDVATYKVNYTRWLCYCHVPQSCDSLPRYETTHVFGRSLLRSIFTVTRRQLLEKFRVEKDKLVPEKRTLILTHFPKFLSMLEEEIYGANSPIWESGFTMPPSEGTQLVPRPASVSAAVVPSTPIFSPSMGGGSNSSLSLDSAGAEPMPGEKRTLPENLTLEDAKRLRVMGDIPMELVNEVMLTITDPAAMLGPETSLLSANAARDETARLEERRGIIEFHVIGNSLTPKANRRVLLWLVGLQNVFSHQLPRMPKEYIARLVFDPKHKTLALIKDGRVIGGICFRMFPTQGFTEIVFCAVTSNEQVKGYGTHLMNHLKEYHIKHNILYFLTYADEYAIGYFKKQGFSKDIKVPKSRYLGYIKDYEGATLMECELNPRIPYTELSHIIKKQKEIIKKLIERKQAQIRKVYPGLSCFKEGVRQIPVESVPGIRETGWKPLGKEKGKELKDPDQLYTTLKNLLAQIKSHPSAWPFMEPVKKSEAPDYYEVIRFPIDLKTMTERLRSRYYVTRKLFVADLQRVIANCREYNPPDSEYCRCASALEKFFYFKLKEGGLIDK
# Values joined by “and” are separate entries in the source; they are usually repeats but may differ in a detail not shown here. Equal entries are not always repeated. In all, about 390,000 compounds went through this assay and about 820 (0.21%) were called active. The shares of active, inactive and inconclusive entries below differ from those in the screen. The call rests on the fitted dose curve; in most records, active means well fitted inhibition curve with a large enough effect; inconclusive means small, poorly fitted or top-dose-only effect, or another doubt; inactive means no such curve, though single readings can be large or run the other way. Potencies of inconclusive entries are doubtful fits and often do not repeat.
# Molecular target: Histone acetyltransferase KAT2A (Homo sapiens) (UniProt Q92830)
# Assay: qHTS Assay for Inhibitors of GCN5L2
# Conditions: GCN5L2 HAT assay, ThioGlo1 CoA-SH fluorescence; series mostly up to 58.9 µM
# How it was run: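 GCN5L2 (20nM final) in 50mM HEPES, 0.1mM EDTA pH 7.5, 0.01% Tween-20 was preincubated 15 min at room temperature with compound, then given ThioGlo1 (50uM), H3(1-25) peptide (75uM) and acetyl-CoA (70uM); CoA-thiol fluorescence (Ex340/Em540) was read at 0 and 20 min.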
# Potency means the concentration at half of the fitted maximal effect.
row,SMILES,Potency
1,Cc1ccc(-c2nc(CN3CCN(c4cnccn4)CC3)c(C)o2)o1,"inconclusive: 3.55 µM [inhibitor, single point]"
2,CNc1ncnc2c1ncn2[C@H]1C[C@H](O)[C@@H](CO)O1,inactive
3,O=[N+]([O-])c1ccc(-c2cnc(SCc3ccccc3Cl)[nH]2)cc1,"inconclusive: 7.08 µM [inhibitor, single point]"
4,O=C(Nc1ccc2snnc2c1)Nc1cccc2ccccc12,inactive
5,CCCCCSc1nnc2c(n1)OC(c1cccn1C)N(C(C)=O)c1ccccc1-2 (stereo not drawn),"inconclusive: 7.08 µM [inhibitor, single point]"
6,Cc1nc(SC(C)C(=O)Nc2cccc(C(F)(F)F)c2)c2c(C)c(C(=O)O)sc2n1 (stereo not drawn),"inconclusive: 28.2 µM [inhibitor, single point]"
7,O=C(/C=C/c1c(F)cccc1Cl)NCCCN1CCOCC1,"inconclusive: 39.8 µM [inhibitor, single point]"
8,CN(C)CCCOc1cccc(Oc2ccccc2)c1,inactive
9,CCOc1ccc(NC(=O)c2c(NCc3cccs3)sc3c2CCC(C)C3)cc1 (stereo not drawn),"inconclusive: 5.01 µM [inhibitor, full curve, poor fit]"
10,CC[n+]1c(/C=C/C=C2/N(C)c3ccccc3C2(C)C)sc2ccccc21,active: 28.2 µM
11,O=C(O)c1ccccc1-c1c2cc(I)c(=O)c(I)c-2oc2c(I)c(O)c(I)cc12,active: 11.2 µM
12,C=CCc1cc(C)ccc1OCCOCCN1CCN(C)CC1,inactive
13,CC(C)C[C@H](NC(=O)c1nc[nH]c1C(=O)N1CCc2ccccc2C1)C(=O)OCc1ccccc1,"inconclusive: 3.16 µM [inhibitor, partial curve, poor fit]"
14,COc1ccc(NC(=O)C(C)Sc2nnc3c4c(nc(-c5ccc(OC)cc5)n23)CC(C)(C)OC4)cc1 (stereo not drawn),inactive
15,CCCCCCCC1(C)NC(=O)N(c2ccccc2)N1 (stereo not drawn),"inconclusive: 0.794 µM [inhibitor, single point]"
16,Oc1sc(C=Nc2ccccc2)c2ccccc12,inactive
17,O=C(CSc1cn(CC(=O)N2CCCCC2)c2ccccc12)NCc1ccccc1Cl,inactive
18,CCCCC(CCC(=O)Nc1ccn(-c2ccccc2)n1)C(=O)O (stereo not drawn),"inconclusive: 39.8 µM [inhibitor, single point]"
19,O=C(CSc1nc2ccccc2c(=O)n1C1CC1)NCc1ccccc1,"inconclusive: 39.8 µM [inhibitor, single point]"
20,COc1ccc(C)cc1-n1nnnc1SCC(=O)NC(=O)NCc1ccco1,"inconclusive: 11.2 µM [inhibitor, partial curve]"
21,CCCc1cc(=O)n2[nH]c(C(F)(F)F)nc2n1,"inconclusive: 7.08 µM [inhibitor, single point]"
22,S=c1nc(-c2cc(Cl)cc(Cl)c2)[nH][nH]1,inactive
23,CCc1ccc(-c2[nH]nc3nc(-c4cc(OC)ccc4OC)cc(C(=O)O)c23)cc1,inactive
24,Cc1cc(=O)n(Cc2ccc(Br)cc2F)c2c1c(C)nn2-c1ccccc1,inactive
25,Cc1ccc(-c2nn(-c3ccccc3)cc2CSC(=N)N)cc1,"inconclusive: 2.24 µM [inhibitor, partial curve]"

row,SMILES,Potency
1,O=C(NCCc1csc(-c2ccccc2)n1)c1ccco1,"inconclusive: 39.8 µM [inhibitor, single point]"
2,CC(C)OCCCn1c(SCc2ccccc2Cl)nc2c(sc3ccccc32)c1=O,inactive
3,C=CCn1c(SCC(=O)Nc2nnc(C)s2)nnc1C1CC1,inactive
4,Nc1ccc(-c2nc3ccc(N)cc3s2)cc1,"inconclusive: 20 µM [inhibitor, partial curve]"
5,Oc1cc2c(cc1O)[C@@H](c1ccccc1)CNCC2,inactive
6,Cc1ccc2c(CN3CCN(C(=O)c4ccco4)CC3)cc(=O)oc2c1C,"inconclusive: 39.8 µM [inhibitor, single point]"
7,O=C(NNc1nc(=O)c2cccnc2s1)c1ccccc1O,inactive
8,Cc1ccc2c(c1)COc1c3ccc(C(=O)N[C@@H](C)CO)cc3nn1-2,"inconclusive: 11.2 µM [inhibitor, partial curve, poor fit]"
9,COc1ccc(N2CCN(C(=S)NCc3ccccc3)CC2)cc1,inactive
10,COCCCNC(=O)CSc1nc2ccccc2c(=O)n1CCCN1CCCCC1,inactive
11,COC(=O)c1cc2sccc2n1Cc1nc(-c2ccc(C)cc2)oc1C,inactive
12,O=C1OCCN1C(=O)[C@H]1[C@H](c2ccc(F)cc2)C(c2cccc(Cl)c2)=NN1c1ccc(Br)cc1,"inconclusive: 25.1 µM [inhibitor, partial curve] and inconclusive: 28.2 µM [inhibitor, single point]"
13,Cc1ccnc(NS(=O)(=O)c2ccc(NC(=O)c3cc(=O)c4ccccc4o3)cc2)n1,"inconclusive: 35.5 µM [inhibitor, single point]"
14,CCOC(=O)/C(C(N)=NC)=C(\O)c1ccccc1,inactive
15,CN(C)NC(=S)NC1CC2CCC1C2 (stereo not drawn),inactive
16,O=C(COc1ccc(Br)cc1)Nc1ccc(C(=O)OC2CCCCC2)cc1,inactive
17,CSc1ncccc1C(=O)OCC(=O)NC12CC3CC(CC(C3)C1)C2,inactive
18,CCc1ccc(N(CC(=O)NCc2cccnc2)S(=O)(=O)c2ccccc2)cc1,"inconclusive: 22.4 µM [inhibitor, single point]"
19,CC(=O)N1CCc2c(sc(NC(=O)CSc3ccc(F)cc3)c2-c2nc3ccccc3s2)C1,"inconclusive: 39.8 µM [inhibitor, single point]"
20,COc1ccc(OCc2cc(C(=O)NCC3CCCCO3)no2)c(Cl)c1 (stereo not drawn),inactive
21,CCN(CC)C(=O)Cn1cc(S(=O)(=O)CC(=O)NCCc2ccccc2)c2ccccc21,"inconclusive: 3.16 µM [inhibitor, single point]"
22,COc1ccc(-c2nc3n(n2)C(c2ccncc2)C(C(N)=O)=C(C)N3)cc1 (stereo not drawn),"inconclusive: 39.8 µM [inhibitor, single point]"
23,FC(F)(F)c1cccc(NC(=S)N(CCCN2CCCC2)Cc2cccn2Cc2ccc(Cl)cc2)c1,inactive
24,Fc1ccc(C2NCCn3cccc32)cc1 (stereo not drawn),"inconclusive: 0.447 µM [inhibitor, single point]"
25,Cc1cc(C)cc(NC(=O)CSCc2cc(=O)n3ccsc3n2)c1,"inconclusive: 1.26 µM [inhibitor, partial curve]"

row,SMILES,Potency
1,COc1ccc([N+](=O)[O-])c(OC)c1C(=O)NC(=O)Nc1c(F)c(F)c(F)c(F)c1F,inactive
2,O=C(CC(Nc1cccc(Cl)c1Cl)C(=O)O)c1ccccc1 (stereo not drawn),inactive
3,Cc1ccccc1S(=O)(=O)Cc1ccc(C(=O)NC(C)c2ccccc2)o1 (stereo not drawn),"inconclusive: 35.5 µM [inhibitor, single point]"
4,CCOc1ccccc1Nc1ncnc2ccccc12,"inconclusive: 8.91 µM [inhibitor, partial curve]"
5,O=C1[C@H]2C(c3ccccc3)=NN(c3ccccc3)[C@H]2C(=O)N1c1ccccc1,"inconclusive: 39.8 µM [inhibitor, single point]"
6,Cc1cc(C)c(OCCOCCN2CCNCC2)c(C)c1,inactive
7,O=C(NNC(=S)NC(=O)c1ccc(Br)cc1)c1ccc([N+](=O)[O-])cc1,"inconclusive: 8.91 µM [inhibitor, partial curve]"
8,COc1ccc(OC)c(/C=C2\SC(=S)N(NS(=O)(=O)c3ccc(C)cc3)C2=O)c1,"inconclusive: 39.8 µM [inhibitor, single point]"
9,Cc1ccn(CC(=O)N2CCCC(N3CCN(Cc4ccc5c(c4)OCO5)CC3)C2)n1 (stereo not drawn),"inconclusive: 0.126 µM [inhibitor, full curve, poor fit]"
10,COc1ccc2ccc3c(c2c1)N=C[C@]1(O3)N(C)c2ccccc2C1(C)C,"inconclusive: 10 µM [inhibitor, partial curve]"
11,CN(C)c1ncnc2ccc(-c3ccoc3)cc12,inactive
12,N#CN(CC(N)=O)c1nc(N2CCCCC2)nc(N2CCCCC2)n1,"inconclusive: 20 µM [inhibitor, single point]"
13,CCN(CC)CCNC(=O)c1cc2cc3ccc(OC)cc3nc2o1,"inconclusive: 8.91 µM [inhibitor, full curve, poor fit]"
14,COc1cc(NC(=O)/C=C/c2ccccc2)c(C(=O)O)cc1OC,inactive
15,O=C(NC1CC2CCC(C1)N2C(=O)NCc1ccccc1)NC12CC3CC(CC(C3)C1)C2 (stereo not drawn),"inconclusive: 39.8 µM [inhibitor, single point]"
16,COc1ccc(NC(=O)CCN2C(=O)c3ccncc3C2=O)cc1OC,"inconclusive: 39.8 µM [inhibitor, single point]"
17,N#C/C(=C\c1ccc(F)cc1)C(=O)Nc1ccccn1,"inconclusive: 0.794 µM [inhibitor, full curve, poor fit]"
18,COc1ccc(Cn2nnc3c(=O)[nH]c(C(=O)NCCc4ccc(F)cc4)nc32)cc1OC,"inconclusive: 0.501 µM [inhibitor, single point]"
19,CCN(CC)C(=O)C(=O)N/N=C/c1cccc(Br)c1,"inconclusive: 6.31 µM [inhibitor, single point]"
20,COc1cc(OC)c(NC(=O)CCNS(=O)(=O)c2cc(Br)cnc2N)cc1Cl,"inconclusive: 15.8 µM [inhibitor, partial curve, poor fit]"
21,Cc1sc2c(c1C)c(=O)n(CCc1ccccc1)c(=O)n2Cc1ccc(F)cc1,inactive
22,O=C(Nc1cc(Cl)ccc1-n1cncn1)c1ccc([N+](=O)[O-])o1,"inconclusive: 3.16 µM [inhibitor, single point]"
23,Cc1ccc(NC(=O)CSc2nccn2C)cc1F,"inconclusive: 0.1 µM [inhibitor, full curve, poor fit]"

# A few values from above:
# Entry of COc1ccc2ccc3c(c2c1)N=C[C@]1(O3)N(C)c2ccccc2C1(C)C under Potency: inconclusive: 10 µM [inhibitor, partial curve]
# Entry of CCN(CC)C(=O)C(=O)N/N=C/c1cccc(Br)c1 under Potency: inconclusive: 6.31 µM [inhibitor, single point]
# Entry of O=C(NC1CC2CCC(C1)N2C(=O)NCc1ccccc1)NC12CC3CC(CC(C3)C1)C2 (stereo not drawn) under Potency: inconclusive: 39.8 µM [inhibitor, single point]
